Test results taken from patent US20240115662A1, “METHODS OF TREATING HYPOGONADOTROPIC HYPOGONADISM AND COGNITION IMPAIRMENT FOLLOWING A TRAUMATIC BRAIN INJURY” (WISCONSIN ALUMNI RESEARCH FOUNDATION, priority 2021, published 2024).
For at least one compound, name, drawing or mass did not settle the structure.

Test system: hESC
Assay: hESC differentiation into neuroectoderm / neural precursor cells (nestin immunoblot, rosettes)
Format: cell-based, human
Settings: hESC treated for 9 d; E2 (10 nM), P4 (2 μM)
Protocol: FIG. 5A. hESC were grown in TESR1 media-Li in the presence of E2 (10 nM), P4 (2 μM) or E2 (10 nM)+P4 (2 μM) for 6 d and cell proliferation measured using the trypan blue assay. Results are expressed as mean±SEM, n=3 (*p<0.05, **p<0.005 compared to 6 d control). FIG. 5B. Equal amounts of protein from cell lysates of hESC treated for 9 d as described above were analyzed by immunoblot using a monoclonal antibody against nestin (clone 10C2; Chemicon, CA, USA). FIG. 5C. hESC were cultured for 4 days, enzymatically lifted and placed into EB media (containing serum) and rocked gently for an additional 4 days prior to being placed in one of two neural induction medias for an additional 11 days, where P4 was either absence or present. During this transition from EB to rosettes, colony structures treated with P4 also were treated with a Progesterone Receptor (PR) antagonist (RU-486; 20 μM) for 11 days. At 19 day, morphological observation and molecular analysis were performed. (i) Control structure, a minimum of three rosette structures were observed inside the cystic cavity (arrows). (ii) hESC structure in the absence of P4 (no rosettes) (iii) PR antagonist treated rosettes (no rosettes; RU-486, 20 μM). FIG. 5D. Equal amounts of protein from cell lysates of above structures were analyzed by immunoblot for nestin. […]

C[C@]12CC[C@@H]3c4ccc(O)cc4CC[C@H]3[C@@H]1CC[C@@H]2O [E2, estradiol]
nestin expression (immunoblot): induced nestin expression (205- and 220-kDa variants), albeit at a lower level
